2 sequences from article PMC6495647 can be followed below.

For at least one entry, the source does not settle the construct or the ends of the probe. A weaker result is weaker than the reference pair of the same experiment. For some assays here: Tags and fusion partners may be left off the protein sequences shown.

For series [1], the target named is T1, MucB (UniProt Q79BK7).
T1 sequence (looked up, limits assumed): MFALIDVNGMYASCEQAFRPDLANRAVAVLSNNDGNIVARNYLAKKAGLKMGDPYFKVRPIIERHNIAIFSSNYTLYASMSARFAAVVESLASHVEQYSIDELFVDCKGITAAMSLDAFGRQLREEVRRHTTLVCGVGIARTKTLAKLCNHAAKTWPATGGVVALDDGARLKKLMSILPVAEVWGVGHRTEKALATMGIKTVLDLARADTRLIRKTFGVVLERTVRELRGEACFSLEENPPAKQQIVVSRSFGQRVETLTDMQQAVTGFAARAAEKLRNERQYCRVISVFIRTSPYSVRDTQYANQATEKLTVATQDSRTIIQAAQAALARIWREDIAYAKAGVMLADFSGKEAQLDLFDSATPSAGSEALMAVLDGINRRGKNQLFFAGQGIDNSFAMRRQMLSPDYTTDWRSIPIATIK
The series can be described thus: SPR. The settings on record: MucB 0.26 uM, higher affinity for ssDNA than dsDNA; SPR (BIAcore 2000, SA chip): 20 mM HEPES pH 8.0, 50 mM K-glutamate, 10 mM Mg acetate, 5% glycerol, 0.1 mM EDTA, 2 mM DTT, 0.05% Surfactant P20 (1% P20 in MucB sample); recombinant protein; label: 5'-biotin on strand 1. On the technique in general: Surface plasmon resonance follows binding to a sensor surface in real time, without labels.

Series [2] concerns MucB + MucA'. The series can be described thus: SPR. The settings on record: MucB 0.26 uM premixed with MucA' 1 or 10 uM, binding decreased vs MucB alone; SPR (BIAcore 2000, SA chip): 20 mM HEPES pH 8.0, 50 mM K-glutamate, 10 mM Mg acetate, 5% glycerol, 0.1 mM EDTA, 2 mM DTT, 0.05% Surfactant P20 (1% P20 in MucB sample); recombinant protein; label: 5'-biotin; single-stranded DNA.

Turning to “GCGGCGGTTGAGTAGCTCTTCTTCCAGCACGTTTTCGCCGATAATACCGGGATCGACCACGCCATCCATTACC (double strand) [73-mer dsDNA oligonucleotide]”, the binding result in series [1] was “binds more weakly”.

For “GCGGCGGTTGAGTAGCTCTTCTTCCAGCACGTTTTCGCCGATAATACCGGGATCGACCACGCCATCCATTACC [73-mer ssDNA oligonucleotide]”, in series [2], the binding result is on record as “binds more weakly”.
